Reference: US20220241337A1, “PREPARING TISSUES FOR DELIVERY OF THERAPEUTIC AND DIAGNOSTIC AGENTS AND DELIVERING THE AGENTS” (The Trustees of Columbia University in the City of NewYork, priority 2019, published 2022)
For at least one compound, name, drawing or mass did not settle the structure.

Legend:
[1] = system: HSP70 promoter; assay: Infected stem cells intracranially implanted with patient-derived (PDX) GBM cells, GFP induction in sectioned brains; assay type: in vivo, mice; conditions: infected stem cells + PDX GBM cells intracranial; single 200 mg/kg dose five days post implantation; sacrificed 24 hours after treatment; compared to untreated controls
[2] = system: HSP70 promoter; assay: Infected stem cells implanted subcutaneously in immunocompromised mice, luciferase/GFP activation after temozolomide; assay type: in vivo; conditions: 1.25 mg/mouse ip
[3] = system: HSP70 promoter; assay: Temozolomide induction of HSP70 promoter reporters (GFP, Luciferase, TNFalpha) in infected hMSC in vitro; assay type: cell-based, Human
[4] = system: blood brain barrier; assay: Engineered stem cells with HSP70 promotor inducible TNF alpha, blood brain barrier permeability by optical/CT imaging of cy7-albumin; assay type: in vivo; conditions: 200 mg/kg temozolomide systemically, in contrast to untreated control

`Cn1nnc2c(C(N)=O)ncn2c1=O` [temozolomide] was tested, and the “GFP induction in sectioned brains (fluorescent microscope)” value [1] was “significant GFP induction”, the “activation of luciferase in vivo (luminescent signal)” value ([2]; 1×10^6 infected stem cells subcutaneous, 24 hours after treatment) was “observed luminescent signal in vivo” and the “postmortem imaging of activated GFP and Luciferase” value ([2]; subcutaneous infected stem cells, postmortem) was “confirmed postmortem via imaging of activated GFP and Luciferase”. For the same compound, the “induction of GFP (fluorescent microscopy)” value ([3]; hMSC with Luciferase/GFP under HSP70 promoter, 0.1 to 100 mcg/ml temozolomide, imaged at approximately 2, 5 and 24 h) was “induction of GFP was observed after about 24 hours”, the “expression of TNFalpha (ELISA)” value ([3]; hMSC with Luciferase/TNFalpha under HSP70 promoter, 0.1 to 100 mcg/ml, 24 h post treatment) was “confirmed by Luciferase and TNFalpha expression” and the Luciferase activity ([3]; hMSC, HSP70 promoter plasmid, 0.1 to 100 mcg/ml, 24 h post treatment, Tecan SPARK luminescent reader) was “confirmed by Luciferase and TNFalpha expression”. For the same compound, the “brain deposition of systemically administered cy7-albumin” value [4] was “demonstrated brain deposition of systemically administered cy7-albumin”.
